Assay results published in paper PMC4324908.
No constants are given. Whether binding was seen depends on the method and setting. Binding seen in cells or lysates may run through a third protein. Binding can be weak; no strength is given. Tags and fused reporters may be left off the sequences shown.

Target: GFP-fused rat Hap1A (pEGFP-rHap1A) (rat)
Assay: co-IP; lysates of neuro-2a cells co-transfected with Bcr-myc and GFP, GFP-Hap1A or GFP-Hap1B; anti-GFP antibody on protein A magnetic beads, overnight at 4 C, 50 mM PIPES pH 6.8, 1 mM EGTA, 1 mM MgSO4; washed with 0.1% NP-40; immunoblot with anti-Bcr and anti-GFP

B1: myc-tagged mouse Bcr (pCMV6-mBcr-myc, OriGene) (protein, UniProt Q6PAJ1 1-1270)
chain: MVDSVGFAEAWRAQFPDSEPPRMELRSVGDIEQELERCKASIRRLEQEVNQERFRMIYLQTLLAKEKKSYDRQRWGFRRAAQPPDGAAEPRASAPRPPPAPADGADPAPVEESEARPDGEGSPSKGRSASARRPAAAASADRDDRGPPTSVAALRSNFEKIRKGPAQPGSADAEKPFYVNVEFHHERGLVKVNDKEVSDRISSLGSQAMQMERKKSQQSAGQGLGEAPRPHYRGRSSESSCGLDGDYEDAELNPRFLKDNLINANGGNRPPWPPLEYQPYQSIYVGGMMVEGEGKSPLLRSQSTSEQEKRLTWPRRSYSPRSFEDSGGGYTPDCSSNENLTSSEEDFSSGQSSRVSPSPTTYRMFRDKSRSPSQNSQQSFDSSSPPTPQCQKRHRQCQVVVSEATIVGVRKTGQIWPSDGDSTFQGEADSSFGTPPGYGCAADQAEEQRRHQDGLPYIDDSPSSSPHLSSKGRGSLASGALDPTKVSELDLEKGLEMRKWVLSGILASEETYLSHLEALLLPMKPLKAAATTSQPVLTSQQIETIFFKVPELYEIHKEFYDGLFPRVQQWSHQQRVGDLFQKLASQLGVYRAFVDNYGVAMETAEKCCQANAQFAEISENLRARSNKDVKDSTTKNSLETLLYKPVDRVTRSTLVLHDLLKHTPSSHPDHSLLQDALRISQNFLSSINEEITPRRQSMTVKKGEHRQLLKDSFMVELVEGARKLRHIFLFTDLLLCTKLKKQSGGKTQQYDCKWYIPLTDLSFQMVDELEALPNIPLVPDEELDALKIKISQIKSDIQREKRANKGSKVMERLRKKLSEQESLLLLMSPSMAFRVHSRNGKSYTFLISSDYERAEWRESIREQQKKCFKSFSLTSVELQMLTNSCVKLQTVHHIPLTINKEDDESPGLYGFLHVIVHSATGFKQSSNLYCTLEVDSFGYFVNKAKTRVYRDTTEPNWNEEFEIELEGSQTLRILCYEKCYNKMKMTKEDGESADKLMGKGQVQLDPQTLQDRDWQRTVIDMNGIEVKLSVKFTSREFSLKRMPSRKQTGVFGVKIAVVTKRERSKVPYIVRQCVEEIERRGMEEVGIYRVSGVATDIQALKAAFDVNNKDVSVMMSEMDVNAIAGTLKLYFRELPEPLFTDEFYPNFAEGIALSDPVAKESCMLNLLLSLPEANLLTFLFLLDHLKRVAEKETVNKMSLHNLATVFGPTLLRPSEKESKLPANPSQPITMTDSWSLEVMSQVQVLLYFLQLEAIPAPDSKRQSILFSTEV
For B1, the binding was “binds”.
